Assay results taken from PubChem BioAssay AID1458 (National Center for Advancing Translational Sciences (NCATS), 2008).
The whole screen tested about 210,000 compounds, of which about 5,900 (2.8%) were called active. Inconclusive results (about 5%) are left out. Calls follow the shape of the dose curve; as a rule, active = well fitted activation curve with a large enough effect; inconclusive = small, poorly fitted or top-dose-only effect; inactive = no such curve, though single readings can be large or run the other way. The list shows a part of the results, in another mix than the full data. Where no call is shown, the source filed none.

Test: qHTS Assay for Enhancers of SMN2 Splice Variant Expression; also: nearly all actives have a fitted effect of over 55% in size; as to activity change, positive = activation: % of control where 0% means no effect
Conditions: HEK293 SMN2-luciferase splicing reporter, luminescence, 30-36 h; activity change, positive = activation: at 46.1 µM (top of the series) unless noted
Method in brief: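 qHTS luciferase splicing reporter: luminescence rises when SMN2 exon 7 is included in transfected HEK293 cells. Compound exposure lasted 30-36 h at 37C, with 4.5 mM final sodium butyrate as control, followed by a ONE-Glo read.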
Potency is read from the fitted curve at half-maximal effect.

| SMILES | activity change, positive = activation | Potency |
| --- | --- | --- |
| CC(=O)NCCNC(=O)c1ccc(-n2c(C)ccc2C)cc1 | 40.9% | – |
| Cc1ccc2nsnc2c1S(=O)(=O)NCc1cccnc1 | 30.7% | – |
| CCOc1ccc2nc(N3CCCC(C(=O)NCCCN4CCOCC4)C3)sc2c1 (stereo unspecified) | – | active: 12.6 µM |
| COc1cccc(OCCNc2cc(N3CCOCC3)ccc2[N+](=O)[O-])c1 | 44.8% | – |
| CCN(CC)CC(O)Cn1c2ccccc2c2ccccc21 (stereo unspecified) | 36.7% | – |
| CC(=O)Nc1ccc(N=Nc2ccccc2)cc1 | – | active: 10 µM |
| Cc1ccc(-c2nnc(Cc3ccc([N+](=O)[O-])cc3)o2)cc1 | -11.7% | – |
| O=C(Nc1nnc(SCc2ccc(Cl)cc2)s1)C1CC(=O)N(Cc2ccccc2)C1 (stereo unspecified) | -32.8% | – |
| COc1cc(SC)ccc1C(=O)Nc1nc(C)cs1 | inactive: -80.7% | – |
| O=C(Nc1ccc(/C=C/c2nc3ccccc3o2)cc1)c1c(F)cccc1F | – | active: 8.91 µM |
| COc1ccc(NC(=S)NC(NC(=O)c2cccc(Cl)c2)C(Cl)(Cl)Cl)c([N+](=O)[O-])c1 (stereo unspecified) | inactive: -96.9% | – |
| Cc1c(CCC(=O)NCc2ccc(F)cc2)c(=O)oc2cc(O)ccc12 | 59.3% | – |
| O=c1c(-c2ccc(F)cc2)coc2cc(O)ccc12 | inactive: 77.5% | – |
| Cc1nn(-c2ccccc2)c(N)c1Sc1ccc([N+](=O)[O-])cc1 | inactive: -37.6% | – |
| Cc1cc(C)c2c(=O)[nH]n(C(C)C)c2n1 | 38.8% | – |
| Cc1ccc(S(=O)(=O)Nc2c(C)n(C)n(-c3ccccc3)c2=O)cc1C(=O)NCc1ccccn1 | 32.6% | – |
| Cc1nn2cc(-c3ncc(C(F)(F)F)cc3Cl)cnc2c1Br | 46.3% | – |
| O=C(c1cc(-c2ccc(Cl)cc2)on1)N1CCOCC1 | – | active: 3.16 µM |
| CCOc1ccc(NC(=O)Cn2c(=O)n(-c3cccc(Cl)c3)c(=O)c3c2c2cc(C)ccc2n3C)cc1 | 36.3% | – |
| CSc1nc(-c2ccccc2)nn1S(=O)(=O)c1ccc(Cl)cc1 | 30.9% | – |
| COc1ccc2c(Cl)c(C(=O)NCCCn3ccnc3)sc2c1Cl | inactive: -30.8% | – |
| Clc1ccc(CN2CCN(/N=C/c3ccco3)CC2)cc1 | -34% | – |

| SMILES | activity change, positive = activation | Potency |
| --- | --- | --- |
| Cn1cc([N+](=O)[O-])c(C(=O)Nc2ccc3nc(-c4ccccc4)[nH]c3c2)n1 | – | active: 15.8 µM |
| COc1ccc(Nc2nc(NCc3ccco3)nc(N/N=C/c3ccc(O)cc3)n2)cc1 | -93.8% | – |
| CC(=O)NC1=NN(C(C)=O)C(C)(c2ccc3ccccc3c2)S1 (stereo unspecified) | -31% | – |
| COc1ccccc1-c1nc(NCc2ccccc2)c2ccccc2n1 | inactive: -106% | – |
| O=C(NCCCn1ccnc1)C1c2ccccc2Oc2ccccc21 | 36.6% | – |
| COc1ccc(NS(=O)(=O)c2ccc3oc4ccccc4c3c2)cn1 | -38.1% | – |
| N#CCCSCc1ccc2oc(C(=O)O)cc2c1 | 39.4% | – |
| O=C(CSc1nc2[nH]ncc2c(=O)n1-c1ccccc1Br)NCc1ccco1 | 61.7% | – |
| Cc1ccc(C(=O)Nc2cc(Cl)ccc2OC(=O)c2ccc(C)cc2)cc1 | – | active: 14.1 µM |
| Cc1nn(C)cc1C(C(=O)NC1CCCCC1)N(C(=O)Cc1cccs1)c1ccc(C(C)C)cc1 (stereo unspecified) | inactive: -37.1% | – |
| c1ccc2c(c1)CCCN2Cc1nnnn1C1CCCC1 | 49.4% | – |
| O=C1C2C(C(=O)N1/N=C/c1cccc([N+](=O)[O-])c1)C1C=CC2C12CC2 (stereo unspecified) | inactive: 16.3% | – |
| COc1cc(C2c3cc4c(cc3C(OC3OC5COC(C)O[C@@H]5C(O)C3O)C3COC(=O)C23)OCO4)cc(OC)c1O (stereo partly specified) | inactive: -57.8% | – |
| CCN1CCN(C(c2cc3cccc(C)c3[nH]c2=O)c2nnnn2Cc2ccccc2)CC1 (stereo unspecified) | 35.5% | – |
| O=C(O)c1ccc(COc2c(F)c(F)cc(F)c2F)o1 | 31.2% | – |
| Cc1cccc(NC(=O)C(c2ccccc2Cl)N2CCOCC2)c1 (stereo unspecified) | -31.3% | – |
| CC(C)CC(=O)Nc1ccc(-c2nc3ccccc3c(=O)[nH]2)cc1 | – | active: 3.16 µM |
| CC1(C)CC(=O)c2cnn(-c3nc4ccccc4[nH]3)c2C1 | 43.2% | – |
| CCn1c(SC(C)C)nnc1C1CCN(S(=O)(=O)c2ccc(OC)cc2)CC1 | inactive: -31.9% | – |
| CC(Oc1ccc(Cl)cc1Cl)C(=O)Nc1ccc2oc(-c3ccncc3)nc2c1 (stereo unspecified) | -73.5% | – |
| O=C(Cc1ccccc1)Nc1ccc2c(c1)CCC2 | 129% | – |
| CCCS(=O)(=O)c1c(S(=O)(=O)CCC)c2cc(C(C)(C)C)ccn2c1C(=O)c1ccc(OC)c(OC)c1 | 35.3% | – |

| SMILES | activity change, positive = activation | Potency |
| --- | --- | --- |
| O=C(c1ccccc1[N+](=O)[O-])N1CCC(Cc2ccccc2)CC1 | -36.7% | – |
| CC(C)CCNC(=O)CCCOc1cc(=O)n(C)c2ccccc12 | – | active: 12.6 µM |
| Cc1ccc(Cc2nnc3n(-c4ccccc4)nc(C(=O)c4ccccc4)n3c2=O)cc1 | -43% | – |
| COc1cc(-c2cc(C(=O)Nc3ccc(S(=O)(=O)NCc4ccco4)cc3)c3ccccc3n2)cc(OC)c1OC | -31.5% | – |
| CC(=O)NC1=C(NC2CCS(=O)(=O)C2)C(=O)c2ccccc2C1=O (stereo unspecified) | -35.3% | – |
| CNc1oc(C)nc1S(=O)(=O)c1ccccc1 | 24.6% | – |
| CN(C)CCN(C)Cc1ccccc1Sc1cccc2ccccc12 | inactive: -24.2% | – |
| N#C/C(=C\c1ccco1)Sc1nc2ccccc2s1 | 52.5% | – |
| Cc1cc(NC(=O)c2ccc3c(c2)OCCO3)ccc1NC(=O)c1ccco1 | – | active: 11.2 µM |
| CCCn1nnc(NC(=O)c2ccc3ccccc3c2)n1 | 31.2% | – |
| CC(N=Cc1cccc(O)c1O)c1ccccc1 (stereo unspecified) | 72.6% | – |
| COc1ccc(/C=N/Nc2ccc(C(=O)O)cc2)cc1Br | inactive: -79.7% | – |
| Cc1ccccc1NC(=O)c1cc(C(=O)c2cc(Cl)ccc2O)cn(-c2ccccc2C)c1=O | inactive: -56.9% | – |
| O=C(Nc1nc(-c2ccc(Oc3ccccc3)cc2)cs1)C1=COCCO1 | inactive: -61% | – |
| CS(=O)(=O)Nc1ccccc1C(=O)c1ccccc1 | 45.3% | – |
| Cn1c2ccccc2c(=O)c2c(=O)n(Cc3ccco3)c(COc3ccccc3)nc21 | – | active: 35.5 µM |
| COC(=O)c1sccc1NC(=O)Cc1ccc(OC)c(OC)c1 | -56.5% | – |
| CCc1nn(CC(=O)N2CCN(c3cccc(C)c3)C(C)C2)c(=O)c2cc3sccc3n12 (stereo unspecified) | 33.1% | – |
| COC(=O)COc1nc(C)c(Br)c(OC)n1 | 50.9% | – |
| COc1cccc(NC(=O)CSc2cc(C)c3ccccc3n2)c1 | inactive: -13.5% | – |
| CS(=O)(=O)c1ccc2nc(NC(=O)c3cccs3)sc2c1 | – | active: 2.24 µM |
| NC(=O)C1CCN(C2CC(=O)N(c3cccc(F)c3)C2=O)CC1 (stereo unspecified) | 31.6% | – |

For convenience, 6 of the compounds above:

| SMILES | activity change, positive = activation | Potency |
| --- | --- | --- |
| Cc1ccc(Cc2nnc3n(-c4ccccc4)nc(C(=O)c4ccccc4)n3c2=O)cc1 | -43% | – |
| COc1cc(-c2cc(C(=O)Nc3ccc(S(=O)(=O)NCc4ccco4)cc3)c3ccccc3n2)cc(OC)c1OC | -31.5% | – |
| CC(=O)NC1=C(NC2CCS(=O)(=O)C2)C(=O)c2ccccc2C1=O (stereo unspecified) | -35.3% | – |
| CNc1oc(C)nc1S(=O)(=O)c1ccccc1 | 24.6% | – |
| CN(C)CCN(C)Cc1ccccc1Sc1cccc2ccccc12 | inactive: -24.2% | – |
| N#C/C(=C\c1ccco1)Sc1nc2ccccc2s1 | 52.5% | – |

Later entries.

| SMILES | activity change, positive = activation | Potency |
| --- | --- | --- |
| CCOC(=O)c1ccc(N2C(=O)CC(SCC(=O)Nc3ccc(S(N)(=O)=O)cc3)C2=O)cc1 (stereo unspecified) | inactive: 13.3% | – |
| CCOC(=O)c1ccc(N2C(=O)C(O)=C(C(C)=O)C2c2ccc(O)c(OC)c2)cc1 (stereo unspecified) | 33.3% | – |
| O=C(CSc1nnc(Cn2nnc3ccccc32)o1)N(Cc1ccc(F)cc1)c1ccccc1 | -76.3% | – |
| C=CCn1c(Cc2nc3ccc(Cl)cc3[nH]2)n[nH]c1=S | 53.4% | – |
| Cc1c(NC(=S)NC(=O)c2sc3ccccc3c2Cl)cccc1C(=O)O | – | active: 3.98 µM |
| Cc1cc(C(=O)CSc2nc(N)cc(=O)[nH]2)c(C)n1-c1ccc(OC(F)F)cc1 | inactive: -75.7% | – |
| CN(C(=O)c1ccncc1)c1nnc(-c2cccnc2)s1 | 37.3% | – |
| Cc1ccc2[nH]c(-c3cccc(N)c3)cc2c1 | – | active: 14.1 µM |
| COc1ccc(-c2nc3ccccc3c(=O)n2CCN2CCOCC2)cc1 | 36.1% | – |
| Cc1ccccc1OCCNC(=O)c1ccc2ccccc2n1 | – | active: 22.4 µM |
| Cc1ccc(NC(=O)CSc2nnc(COc3ccc(C#N)cc3)n2-c2ccccc2)cc1C | inactive: -39.6% | – |
| O=C(NCCC1=CCCCC1)C1CCC(CNS(=O)(=O)c2ccccc2)CC1 (stereo unspecified) | inactive: -32.5% | – |
| O=C1c2[nH]nc(-c3ccccc3O)c2C(c2ccccc2F)N1Cc1ccco1 (stereo unspecified) | 33.9% | – |
| CSc1ccccc1C(=O)NCC1CCCO1 (stereo unspecified) | 34.1% | – |
| c1ccc(CN2CCN(c3ncnc4c3[nH]c3ccccc34)CC2)cc1 | inactive: -36.7% | – |
| CCCCN(C(=O)c1cccc2c(=O)c(C)c(-c3ccccc3)oc12)c1ccccc1 | inactive: -60.8% | – |
| COC(=O)c1ccccc1NC(=O)C(C)NS(=O)(=O)c1ccc(OC)cc1 (stereo unspecified) | 38.5% | – |
| CCn1cc(C(=O)N2CCN(c3ccc(OC)cc3)CC2)c(=O)c2cc(S(=O)(=O)N3CCCCC3)ccc21 | 31.9% | – |
| Cc1cc[n+](CC(=O)N2CCCc3ccccc32)cc1 | 5.27% | – |
| CCCCCCN(CCCCCC)C(=O)Cc1c(-c2ccc(F)cc2)[nH]c2ccccc12 | – | inactive |
| O=[N+]([O-])c1ccc(/C=C/c2ccc3cccc([N+](=O)[O-])c3n2)cc1 | inactive: -41.1% | – |
| O=c1nc2sc3ccccc3n2c(=O)n1-c1cccc(Cl)c1 | 92.3% | – |

One compound at a time, from the list above.
CC(N=Cc1cccc(O)c1O)c1ccccc1 (stereo unspecified) as listed: activity change, positive = activation: 72.6%
O=C(Nc1nnc(SCc2ccc(Cl)cc2)s1)C1CC(=O)N(Cc2ccccc2)C1 (stereo unspecified) as listed: activity change, positive = activation: -32.8%

Later entries

| SMILES | activity change, positive = activation | Potency |
| --- | --- | --- |
| Cc1cc(C(=O)NCc2ccco2)no1 | 34.5% | – |
| COc1cc(NC(=O)c2ccccc2)c(OC)cc1NC(C)=O | 52.8% | – |
| c1ccc(-c2nc3ccccc3[nH]2)nc1 | – | active: 3.16 µM |
| COc1cccc(C2CC3(CC(C)(C)NC(=S)N3)Oc3cc(O)ccc32)c1 (stereo unspecified) | inactive: -36% | – |
| CCOC(=O)N1CCN(Cc2nc(N)nc(Nc3ccc(C)cc3)n2)CC1 | 42.4% | – |
| COc1ccc(Nc2nc(-c3ccccc3)cs2)cc1 | – | active: 10 µM |
| N/C(=N\OC(=O)c1ccc(Cl)cc1)c1ccccn1 | – | active: 7.08 µM |
| S=C(Nc1cccc(Br)c1)c1ccccc1 | -44.3% | – |
| O=c1oc2ccccc2c2c1ncn2-c1ccccc1 | 43.2% | – |
| Cc1ccccc1N/C(SCc1ccc(Cl)cc1)=C(/C#N)C(N)=O | -4.62% | – |
| CCCCNc1c2c3c(cccc3n(C)c1=O)C(=O)c1ccccc1-2 | inactive: -50.5% | – |
| COc1cc(CNC(C)c2ccccc2)c(Br)cc1OCC(N)=O (stereo unspecified) | -40.2% | – |
| c1cc(-c2noc(CC3CCCCC3)n2)ccn1 | 31.4% | – |
| CCc1ccc(-n2nc(CO)c(C(=O)NCc3cccnc3)n2)cc1 | inactive: -44.9% | – |
| Cc1ccc2c(CNCc3ccco3)cc(=O)oc2c1 | – | active: 12.6 µM |
| NC(=O)c1ccccc1NC(=O)/C=C/c1c(Cl)cccc1Cl | inactive: 45.7% | – |
| COc1ccccc1N(C)S(=O)(=O)c1ccc(C(=O)Nc2ccc(N3CCOCC3)cc2)cc1 | inactive: -45.8% | – |
| CCCC(=O)NNc1cc(=O)c2c(=O)n(C)c(=O)n(C)c2[nH]1 | -31.1% | – |
